From publication PMC12643531

B1: SQUAMOSA Promoter-Binding Protein-Like 9 (SPL9) (protein, UniProt Q700W2 1-375)
chain: MEMGSNSGPGHGPGQAESGGSSTESSSFSGGLMFGQKIYFEDGGGGSGSSSSGGRSNRRVRGGGSGQSGQIPRCQVEGCGMDLTNAKGYYSRHRVCGVHSKTPKVTVAGIEQRFCQQCSRFHQLPEFDLEKRSCRRRLAGHNERRRKPQPASLSVLASRYGRIAPSLYENGDAGMNGSFLGNQEIGWPSSRTLDTRVMRRPVSSPSWQINPMNVFSQGSVGGGGTSFSSPEIMDTKLESYKGIGDSNCALSLLSNPHQPHDNNNNNNNNNNNNNNTWRASSGFGPMTVTMAQPPPAPSQHQYLNPPWVFKDNDNDMSPVLNLGRYTEPDNCQISSGTAMGEFELSDHHHQSRRQYMEDENTRAYDSSSHHTNWSL
B2: SEUSS-LIKE2 (SLK2) (protein, UniProt Q94BP0 1-816)
chain: MASSTSGIFFQGDDESQSFINSHLTSSYGNSSNSAPGCGGPTGGYHNLSMVSGDMHNPVMMSVSTPGPSAGASSLVTDANSGLSGGGPHLQRSASINNESYMRLPASPMSFSSNNISISGSSVVDGSTVVQRHDPSVQLGGSSATSLPTSQTNQIPLSMARRASESFFQDPNNLTQARKKPRLDSKQDDALQQQILRQWLQRQDILQQQQQQQQQGQNPQFQILLQQQKLRQQQQYLQSLPPLQRVQLQQQQQVQQQQQLQQQHQQQQQQLQQQGMQMQLTGGPRPYENSVCARRLMQYLYHQRQRPSESSIVYWRKFVTEYFSPRAKKRWCLSHYDNVGHSALGVSPQAATDEWQCDLCGSKSGRGFEATFDVLPRLNEIKFASGVLDELLYLGVPSERRYGSGIMVLEYGKAVQESVYEHIRVVREGHLRIIFSQELKILSWEFCTRRHEELLPRRLVAPQVNQLLQVAEKCQSTIDQSGSDGIHQQDLQANSNMVMAAGRQLAKSLESHSLNDLGFSKRYVRCLQISEVVSSMKDMIDFCRDQKVGPIEALKSYPYRMKAGKPQMQEMEQLAAARGLPPDRNSLNKLMALRNSGINIPMNNMSGQGSLPGSAQAAAFALTNYQSMLMKQNHLNSDLNNTTIQQEPSRNRSASPSYQGTSPLLPGFVHSPSISGVSSHLSPQRQMPSSSYNGSTQQYHQQPPSCSSGNQTLEQQMIHQIWQQMANSNGGSGQQQQSLSGQNMMNCNTNMGRNRTDYVPAAAETPSTSNRFRGIKGLDQSQNLEGIISNTSLNFGNNGVFSNEVDESMGGYSWKS
B3: YIN YANG 1 (YY1) (protein, UniProt Q2V3L3 1-387)
chain: MDHQNYQYQNPFERRPILKSKAPAVKWIKEWVPQDIVATGGKCHLHKWVTEDTFSRLKEKEKEPDVPEPEPEPTTEILFLCSYDGCGKTFFDVSALRKHSHIHGERQYVCDQEGCGKKFLDSSKLKRHYLIHTGERNYICTYEGCGKAFSLDFNLRSHMKTHSQENYHICPYSGCVKRYAHEYKLKNHVAAYHEKNGGGETPKYTPPAEKVLRTVKTPATVCGPSSDRPYACPYEGCEKAYIHEYKLKLHLKREHPGHLQEENADTPTLNKHNGNDRNEIDDGSDQDVYRKHASNGKGQTHKQQSRAKPNMRTPPAKVGKKGSTSSPAKARIAKKPWQAKETFEEVEREEEEDSEETEEDRDNVEDGWRFGENNEDDDDDEETEYED
B4: … (PAN) (protein, UniProt Q9SX27 1-452)
chain: MQSSFKTVPFTPDFYSQSSYFFRGDSCLEEFHQPVNGFHHEEAIDLSPNVTIASANLHYTTFDTVMDCGGGGGGGLRERLEGGEEECLDTGQLVYQKGTRLVGGGVGEVNSSWCDSVSAMADNSQHTDTSTDIDTDDKTQLNGGHQGMLLATNCSDQSNVKSSDQRTLRRLAQNREAARKSRLRKKAYVQQLENSRIRLAQLEEELKRARQQGSLVERGVSADHTHLAAGNGVFSFELEYTRWKEEHQRMINDLRSGVNSQLGDNDLRVLVDAVMSHYDEIFRLKGIGTKVDVFHMLSGMWKTPAERFFMWLGGFRSSELLKILGNHVDPLTDQQLIGICNLQQSSQQAEDALSQGMEALQQSLLETLSSASMGPNSSANVADYMGHMAMAMGKLGTLENFLRQADLLRQQTLQQLHRILTTRQAARAFLVIHDYISRLRALSSLWLARPRD
B5: B… (BLR) (protein, UniProt Q9LZM8 1-575)
chain: MADAYEPYHVLQQSRRDKLRIPSLDSHFHFHPPPPPSSGGGGGVFPLADSDFLAAGGFHSNNNNNHISNPSYSNFMGFLGGPSSSSSTAVAVAGDHSFNAGLSSGDVLVFKPEPLSLSLSSHPRLAYDLVVPGVVNSGFCRSAGEANAAAVTIASRSSGPLGPFTGYASILKGSRFLKPAQMLLDEFCNVGRGIYTDKVIDDDDSSLLFDPTVENLCGVSDGGGGDNGKKKSKLISMLDEVYKRYKQYYEQLQAVMGSFECVAGLGHAAPYANLALKALSKHFKCLKNAITDQLQFSHNNKIQQQQQCGHPMNSENKTDSLRFGGSDSSRGLCSAGQRHGFPDHHAPVWRPHRGLPERAVTVLRAWLFDHFLHPYPTDTDKLMLAKQTGLSRNQVSNWFINARVRVWKPMVEEIHMLETRQSQRSSSSSWRDERTSTTVFPDNSNNNPSSSSAQQRPNNSSPPRRARNDDVHGTNNNNSYVNSGSGGGSAVGFSYGIGSSNVPVMNSSTNGGVSLTLGLHHQIGLPEPFPMTTAQRFGLDGGSGDGGGGYEGQNRQFGRDFIGGSNHQFLHDFVG
B6: SPL15 (protein, UniProt Q9M2Q6 1-354)
chain: MELLMCSGQAESGGSSSTESSSLSGGLRFGQKIYFEDGSGSRSKNRVNTVRKSSTTARCQVEGCRMDLSNVKAYYSRHKVCCIHSKSSKVIVSGLHQRFCQQCSRFHQLSEFDLEKRSCRRRLACHNERRRKPQPTTALFTSHYSRIAPSLYGNPNAAMIKSVLGDPTAWSTARSVMQRPGPWQINPVRETHPHMNVLSHGSSSFTTCPEMINNNSTDSSCALSLLSNSYPIHQQQLQTPTNTWRPSSGFDSMISFSDKVTMAQPPPISTHQPPISTHQQYLSQTWEVIAGEKSNSHYMSPVSQISEPADFQISNGTTMGGFELYLHQQVLKQYMEPENTRAYDSSPQHFNWSL
B7: TCP5 (protein, UniProt Q9FME3 1-360)
chain: MRSGECDEEEIQAKQERDQNQNHQVNLNHMLQQQQPSSVSSSRQWTSAFRNPRIVRVSRTFGGKDRHSKVCTVRGLRDRRIRLSVPTAIQLYDLQDRLGLSQPSKVIDWLLEAAKDDVDKLPPLQFPHGFNQMYPNLIFGNSGFGESPSSTTSTTFPGTNLGFLENWDLGGSSRTRARLTDTTTTQRESFDLDKGKWIKNDENSNQDHQGFNTNHQQQFPLTNPYNNTSAYYNLGHLQQSLDQSGNNVTVAISNVAANNNNNLNLHPPSSSAGDGSQLFFGPTPPAMSSLFPTYPSFLGASHHHHVVDGAGHLQLFSSNSNTASQQHMMPGNTSLIRPFHHLMSSNHDTDHHSSDNESDS
B8: TCP4 (protein, UniProt Q8LPR5 1-420)
chain: MSDDQFHHPPPPSSMRHRSTSDAADGGCGEIVEVQGGHIVRSTGRKDRHSKVCTAKGPRDRRVRLSAHTAIQFYDVQDRLGFDRPSKAVDWLIKKAKTSIDELAELPPWNPADAIRLAAANAKPRRTTAKTQISPSPPPPQQQQQQQQLQFGVGFNGGGAEHPSNNESSFLPPSMDSDSIADTIKSFFPVIGSSTEAPSNHNLMHNYHHQHPPDLLSRTNSQNQDLRLSLQSFPDGPPSLLHHQHHHHTSASASEPTLFYGQSNPLGFDTSSWEQQSSEFGRIQRLVAWNSGGGGGATDTGNGGGFLFAPPTPSTTSFQPVLGQSQQLYSQRGPLQSSYSPMIRAWFDPHHHHQSISTDDLNHHHHLPPPVHQSAIPGIGFASGEFSSGFRIPARFQGQEEEQHDGLTHKPSSASSISRH
B9: SPL8 (protein, UniProt Q8GXL3 1-333)
chain: MLDYEWDNPSSIVLSGDERNPDSDPTRSSFSFFDPISHYNNDHRHITISPPLLSSFSNQQQQHHLTLYGQTNSNNQFLHHHHHHHSLYGSTTTTTPYGASDPIYHPHSSAPPASLFSYDQTGPGSGSGSSYNFLIPKTEVDFTSNRIGLNLGGRTYFSAADDDFVSRLYRRSRPGESGMANSLSTPRCQAEGCNADLSHAKHYHRRHKVCEFHSKASTVVAAGLSQRFCQQCSRFHLLSEFDNGKRSCRKRLADHNRRRRKCHQSASATQDTGTGKTTPKSPNDSGVKASSSPSSNAPPTISLECFRQRQFQTTASSSTSASSSSNSMFFSSG
B10: SHOOT … (STM) (protein, UniProt Q38874 1-382)
chain: MESGSNSTSCPMAFAGDNSDGPMCPMMMMMPPIMTSHQHHGHDHQHQQQEHDGYAYQSHHQQSSSLFLQSLAPPQGTKNKVASSSSPSSCAPAYSLMEIHHNEIVAGGINPCSSSSSSASVKAKIMAHPHYHRLLAAYVNCQKVGAPPEVVARLEEACSSAAAAAASMGPTGCLGEDPGLDQFMEAYCEMLVKYEQELSKPFKEAMVFLQRVECQFKSLSLSSPSSFSGYGETAIDRNNNGSSEEEVDMNNEFVDPQAEDRELKGQLLRKYSGYLGSLKQEFMKKRKKGKLPKEARQQLLDWWSRHYKWPYPSEQQKLALAESTGLDQKQINNWFINQRKRHWKPSEDMQFVVMDATHPHHYFMDNVLGNPFPMDHISSTML

target: T1, LEUNIG_HOMOLOG (LUH)-GFP (Arabidopsis thaliana) (UniProt O48847); assay: affinity purification with mass spectrometry; LUH-GFP precipitated with anti-GFP micro beads (4°C, 1 h) from nuclear protein extracts of FIS inflorescences at 0, 2, 4 and 8 DAI; LC-MS/MS; enrichment against input, P < 0.05 and FC > 4; three biological replicates
T1 sequence: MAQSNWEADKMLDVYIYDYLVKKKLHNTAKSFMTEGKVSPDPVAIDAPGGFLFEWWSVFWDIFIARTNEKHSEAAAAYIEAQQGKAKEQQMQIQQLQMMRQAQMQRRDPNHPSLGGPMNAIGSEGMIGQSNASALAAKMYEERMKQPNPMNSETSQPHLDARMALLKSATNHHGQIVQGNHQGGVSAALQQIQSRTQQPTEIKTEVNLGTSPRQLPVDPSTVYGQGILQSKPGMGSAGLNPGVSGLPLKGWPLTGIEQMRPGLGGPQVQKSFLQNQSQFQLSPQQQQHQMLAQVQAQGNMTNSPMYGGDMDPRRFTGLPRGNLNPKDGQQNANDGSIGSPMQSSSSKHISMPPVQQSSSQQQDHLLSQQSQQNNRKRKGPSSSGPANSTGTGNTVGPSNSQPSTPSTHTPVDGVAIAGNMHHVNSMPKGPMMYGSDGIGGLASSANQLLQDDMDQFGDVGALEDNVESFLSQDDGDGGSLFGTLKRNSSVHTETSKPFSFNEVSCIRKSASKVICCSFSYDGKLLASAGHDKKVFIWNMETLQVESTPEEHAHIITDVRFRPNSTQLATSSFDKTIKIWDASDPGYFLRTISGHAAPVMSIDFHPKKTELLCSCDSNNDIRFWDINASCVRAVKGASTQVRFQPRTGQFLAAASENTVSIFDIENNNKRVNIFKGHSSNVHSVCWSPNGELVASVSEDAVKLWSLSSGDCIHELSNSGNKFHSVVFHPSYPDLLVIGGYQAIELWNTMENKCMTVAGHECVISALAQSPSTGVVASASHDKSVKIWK

binding, binds:
B1
B2
B3
B4
B5
B6
B7
B8
B9
B10

These are yes or no findings as the source states them, for the method shown. In cells and extracts the contact can be indirect. Here binding means that the protein was enriched with, or labelled near, the bait; the list need not be complete. Tags and fused reporters may be left off the sequences shown.
